Values from PubChem BioAssay AID1671195 (Yale University, 2021)
The deposit covers about 22,000 reagents; shown is a part drawn at random. About 1,510 of them (6.9%) count as active. 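Active includes knockdowns raising or lowering LDL uptake; positive z-scores mean more uptake, negative mean less.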 The numbers tell different reagents against one gene apart.

Screen: 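Genes whose knockdown alters LDL uptake in liver cancer cells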 (primary screen)
Cells: human Huh7 hepatoma cells
Reagents: siRNA pool against human genes, 18 nM
Timing: about 2 to 2.5 days of knockdown, then 8 h LDL uptake
Conditions: DiI-labelled LDL at 30 µg/ml for 8 h, in lipoprotein-deficient serum medium
Read-out: 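Fluorescent LDL signal imaged in cells, scaled to the plate median, robust z-score for each replicate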
Reading the numbers: robust z-score: higher = more LDL uptake after knockdown
Call rule: 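a gene counts as active if at least two replicate z-scores exceed ±2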

| target | reagent | robust z-score, replicate 1 | robust z-score, replicate 2 | robust z-score, replicate 3 | Outcome |
| --- | --- | --- | --- | --- | --- |
| TRIM51FP | 1 | 0.68 | 0.417 | 0.671 | inactive |
| CSMD2 | 1 | -0.263 | -0.963 | -1.08 | inactive |
| SCYL1 | 1 | 0.476 | -0.415 | -1.02 | inactive |
| LOC387939 (retired record) | 1 | 0.181 | 0.0423 | -0.305 | inactive |
| AVPI1 | 1 | 0.379 | 0.211 | 0.199 | inactive |
| EIF1AD | 1 | 0.51 | 1.26 | 0.441 | inactive |
| SPATA21 | 1 | -0.768 | -0.761 | -0.7 | inactive |
| CNOT1 | 1 | -0.963 | 0.514 | -1.83 | inactive |
| UTP3 | 1 | -1.67 | -1.28 | -0.969 | inactive |
| BNIPL | 1 | -0.695 | -0.00168 | 0.268 | inactive |
| GNAT2 | 1 | 2.64 | 3.58 | 3.04 | active |
| LOC441952 (retired record) | 1 | -2.13 | -2.17 | -2.06 | active |
| LOC388528 (retired record) | 1 | -1.2 | -1.21 | -1.08 | inactive |
| TAS2R7 | 1 | -1.37 | -2.21 | -0.671 | inactive |
| MS4A13 | 1 | -0.552 | -0.531 | 0.168 | inactive |
| LOC341370 (retired record) | 1 | 0.133 | -0.354 | -0.209 | inactive |
| SLX4 | 1 | -0.659 | -0.813 | -0.223 | inactive |
| PLS3 | 1 | 1.32 | 2.77 | 1.04 | inactive |
| C16orf78 | 1 | -1.93 | -0.554 | -0.862 | inactive |
| LOC389339 (retired record) | 1 | 0.151 | 0.547 | 0.679 | inactive |
| CPA5 | 1 | -0.878 | -1.09 | -1.06 | inactive |
| CHST6 | 1 | -0.626 | -0.824 | -1.12 | inactive |
| MLLT10 | 1 | 1.18 | 1.87 | 0.443 | inactive |
| TRABD | 1 | 0.147 | -0.7 | -0.467 | inactive |
| MATK | 1 | 0.291 | 0.96 | 0.721 | inactive |
| LOC441803 (retired record) | 1 | -0.681 | -0.0449 | 0.849 | inactive |
| LINC01599 | 1 | -0.285 | 0.138 | -0.29 | inactive |
| KCNH4 | 1 | -0.693 | -1.52 | -0.131 | inactive |

Look-ups from the list.
LOC387939 (retired record), robust z-score, replicate 1 → 0.181
TRIM51FP, robust z-score, replicate 1 → 0.68
For “robust z-score, replicate 3”, UTP3 reads -0.969
Result for KCNH4 under “robust z-score, replicate 1”: -0.693
For “Outcome”, PLS3 reads inactive
For “robust z-score, replicate 2”, CSMD2 has -0.963

Next records follow.
| target | reagent | robust z-score, replicate 1 | robust z-score, replicate 2 | robust z-score, replicate 3 | Outcome |
| --- | --- | --- | --- | --- | --- |
| RAP2C | 1 | 1.44 | 0.619 | 2.89 | inactive |
| SPATA22 | 1 | -0.763 | -0.529 | -0.854 | inactive |
| ENTPD5 | 1 | -1.09 | 0.863 | -0.813 | inactive |
| ARID2 | 1 | 1.17 | 0.637 | -0.572 | inactive |
| NPTN | 1 | 0.034 | 0.901 | 0.17 | inactive |
| PHF13 | 1 | 1.48 | 0.545 | 1.18 | inactive |
| APH1B | 1 | 0.0973 | -0.0552 | -0.228 | inactive |
| APH1B | 2 | -0.699 | 0.528 | -0.106 | inactive |
| LOC387643 (retired record) | 1 | -0.114 | 0.209 | -0.0283 | inactive |
| STK32C | 1 | -0.559 | -0.591 | -1.13 | inactive |
| TCN2 | 1 | -1.1 | -1.03 | -0.166 | inactive |
| FAM76A | 1 | -0.675 | -1.34 | -1.12 | inactive |
| PPARGC1A | 1 | 2.08 | 1.23 | 1.98 | active |
| ALDH9A1 | 1 | -0.41 | -0.719 | -0.464 | inactive |
| MPZL1 | 1 | 1.98 | 0.822 | 1.79 | inactive |
| HS3ST4 | 1 | 4.5 | 3.3 | 4.67 | active |
| HEATR4 | 1 | 1.68 | 1.81 | 1.44 | inactive |
| LOC441023 (retired record) | 1 | 0.296 | 0.909 | 0.215 | inactive |
| RFC3 | 1 | -0.778 | 0.194 | -0.967 | inactive |
| GAPVD1 | 1 | 0.394 | 0.103 | 1.62 | inactive |
| KARS1 | 1 | 0.905 | 1.03 | 1.8 | inactive |
| LOC401823 (retired record) | 1 | 2.12 | 1.87 | 3.37 | active |
| SIGLEC7 | 1 | 0.637 | 1.06 | 1.31 | inactive |
| ACTR3 | 1 | 0.146 | -0.788 | -0.566 | inactive |
| LOC390669 (retired record) | 1 | 0.348 | 0.0732 | 0.492 | inactive |
| LOC439976 (retired record) | 1 | -0.746 | -0.275 | -0.224 | inactive |
| RPL5P29 | 1 | 0.267 | 0.564 | 0.331 | inactive |
| WBP4 | 1 | 0.5 | -0.265 | 1.88 | inactive |
| USP39 | 1 | 0.17 | 0.357 | 0.314 | inactive |
| KRT26 | 1 | -0.672 | -0.334 | -0.0234 | inactive |
| SAMD11 | 1 | 1.92 | 1.9 | 0.913 | inactive |
| PRH2 | 1 | -0.735 | 1.8 | -0.902 | inactive |
| SNRPF | 1 | -0.644 | -0.346 | -1.38 | inactive |
| CD24 | 1 | 1.09 | 0.128 | 1.34 | inactive |
| SPAG4 | 1 | -0.827 | 1.25 | -0.288 | inactive |
| EPB42 | 1 | 0.548 | 0.58 | -0.0299 | inactive |
| AMZ2P1 | 1 | 0.0545 | 0.0823 | -0.909 | inactive |
| YWHAH | 1 | -0.759 | -1.44 | -0.656 | inactive |
| LOC387631 (retired record) | 1 | -0.831 | -0.693 | -1.18 | inactive |
| TRAM2 | 1 | -0.74 | -1.87 | -2.27 | active |
